Measured values published in publication doi:10.1101/2025.08.19.670962, “Structural basis for binding of RILPL1 to TMEM55B reveals a lysosomal platform for adaptor assembly through a conserved TBM motif” (bioRxiv, 2025).
These are yes or no findings as the source states them, for the method shown. Binding seen in cells or lysates may run through a third protein. These calls come from enrichment with a bait or labelling near it, and not all partners need be listed. For some of these results: No binding means not detected with the bait.

Chains of the proteins cited; added tags and fusions are not shown. Lines headed by an entry give the natural chain unless they say otherwise; changes in a name come on top. A line that says so, or that is headed by a name, gives the form on record, which may keep a tag or linker.
Halo-TMEM55B (Q86T03, form named): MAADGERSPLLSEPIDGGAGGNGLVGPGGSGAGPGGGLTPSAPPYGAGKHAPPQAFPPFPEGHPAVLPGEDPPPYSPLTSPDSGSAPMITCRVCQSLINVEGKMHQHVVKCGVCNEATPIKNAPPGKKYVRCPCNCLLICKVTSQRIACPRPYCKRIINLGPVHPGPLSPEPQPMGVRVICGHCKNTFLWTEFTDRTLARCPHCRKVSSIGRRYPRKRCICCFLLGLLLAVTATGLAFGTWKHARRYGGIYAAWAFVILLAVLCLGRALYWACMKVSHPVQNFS
Halo-TMEM55B R151E (Q86T03, form named): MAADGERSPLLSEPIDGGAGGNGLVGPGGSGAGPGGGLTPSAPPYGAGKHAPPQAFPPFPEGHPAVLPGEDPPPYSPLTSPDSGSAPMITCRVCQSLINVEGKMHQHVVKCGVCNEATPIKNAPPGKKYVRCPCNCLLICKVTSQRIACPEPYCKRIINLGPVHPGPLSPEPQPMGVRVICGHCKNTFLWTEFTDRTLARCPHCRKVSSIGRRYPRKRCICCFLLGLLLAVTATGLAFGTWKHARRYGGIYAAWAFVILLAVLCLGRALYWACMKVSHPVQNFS

B1: SNX19 (protein, UniProt Q92543 1-992)
chain: MKTETVPPFQETPAGSSCHLNNLLSSRKLMAVGVLLGWLLVIHLLVNVWLLCLLSALLVVLGGWLGSSLAGVASGRLHLERFIPLATCPPCPEAERQLEREINRTIQMIIRDFVLSWYRSVSQEPAFEEEMEAAMKGLVQELRRRMSVMDSHAVAQSVLTLCGCHLQSYIQAKEATAGKNGPVEPSHLWEAYCRATAPHPAVHSPSAEVTYTRGVVNLLLQGLVPKPHLETRTGRHVVVELITCNVILPLISRLSDPDWIHLVLVGIFSKARDPAPCPASAPEQPSVPTSLPLIAEVEQLPEGRASPVAAPVFLSYSEPEGSAGPSPEVEEGHEAVEGDLGGMCEERKVGNNSSHFLQPNVRGPLFLCEDSELESPLSELGKETIMLMTPGSFLSDRIQDALCALESSQALEPKDGEASEGAEAEEGPGTETETGLPVSTLNSCPEIHIDTADKEIEQGDVTASVTALLEGPEKTCPSRPSCLEKDLTNDVSSLDPTLPPVLLSSSPPGPLSSATFSFEPLSSPDGPVIIQNLRITGTITAREHSGTGFHPYTLYTVKYETALDGENSSGLQQLAYHTVNRRYREFLNLQTRLEEKPDLRKFIKNVKGPKKLFPDLPLGNMDSDRVEARKSLLESFLKQLCAIPEIANSEEVQEFLALNTDARIAFVKKPFMVSRIDKMVVSAIVDTLKTAFPRSEPQSPTEELSEAETESKPQTEGKKASKSRLRFSSSKISPALSVTEAQDKILYCLQEGNVESETLSMSAMESFIEKQTKLLEMQPTKAPEKDPEQPPKGRVDSCVSDAAVPAQDPSNSDPGTETELADTALDLLLLLLTEQWKWLCTENMQKFLRLIFGTLVQRWLEVQVANLTSPQRWVQYLLLLQESIWPGGVLPKFPRPVRTQEQKLAAEKQALQSLMGVLPDLVVEILGVNKCRLSWGLVLESLQQPLINRHLIYCLGDIILEFLDLSASVEESAATTSASDTPGNSKRMGVSS
B2: JIP4 (in HEK293 lysate) (protein, UniProt O60271 1-1321)
chain: MELEDGVVYQEEPGGSGAVMSERVSGLAGSIYREFERLIGRYDEEVVKELMPLVVAVLENLDSVFAQDQEHQVELELLRDDNEQLITQYEREKALRKHAEEKFIEFEDSQEQEKKDLQTRVESLESQTRQLELKAKNYADQISRLEEREAELKKEYNALHQRHTEMIHNYMEHLERTKLHQLSGSDQLESTAHSRIRKERPISLGIFPLPAGDGLLTPDAQKGGETPGSEQWKFQELSQPRSHTSLKVSNSPEPQKAVEQEDELSDVSQGGSKATTPASTANSDVATIPTDTPLKEENEGFVKVTDAPNKSEISKHIEVQVAQETRNVSTGSAENEEKSEVQAIIESTPELDMDKDLSGYKGSSTPTKGIENKAFDRNTESLFEELSSAGSGLIGDVDEGADLLGMGREVENLILENTQLLETKNALNIVKNDLIAKVDELTCEKDVLQGELEAVKQAKLKLEEKNRELEEELRKARAEAEDARQKAKDDDDSDIPTAQRKRFTRVEMARVLMERNQYKERLMELQEAVRWTEMIRASRENPAMQEKKRSSIWQFFSRLFSSSSNTTKKPEPPVNLKYNAPTSHVTPSVKKRSSTLSQLPGDKSKAFDFLSEETEASLASRREQKREQYRQVKAHVQKEDGRVQAFGWSLPQKYKQVTNGQGENKMKNLPVPVYLRPLDEKDTSMKLWCAVGVNLSGGKTRDGGSVVGASVFYKDVAGLDTEGSKQRSASQSSLDKLDQELKEQQKELKNQEELSSLVWICTSTHSATKVLIIDAVQPGNILDSFTVCNSHVLCIASVPGARETDYPAGEDLSESGQVDKASLCGSMTSNSSAETDSLLGGITVVGCSAEGVTGAATSPSTNGASPVMDKPPEMEAENSEVDENVPTAEEATEATEGNAGSAEDTVDISQTGVYTEHVFTDPLGVQIPEDLSPVYQSSNDSDAYKDQISVLPNEQDLVREEAQKMSSLLPTMWLGAQNGCLYVHSSVAQWRKCLHSIKLKDSILSIVHVKGIVLVALADGTLAIFHRGVDGQWDLSNYHLLDLGRPHHSIRCMTVVHDKVWCGYRNKIYVVQPKAMKIEKSFDAHPRKESQVRQLAWVGDGVWVSIRLDSTLRLYHAHTYQHLQDVDIEPYVSKMLGTGKLGFSFVRITALMVSCNRLWVGTGNGVIISIPLTETNKTSGVPGNRPGSVIRVYGDENSDKVTPGTFIPYCSMAHAQLCFHGHRDAVKFFVAVPGQVISPQSSSSGTDLTGDKAGPSAQEPGSQTPLKSMLVISGGEGYIDFRMGDEGGESELLGEDLPLEPSVTKAERSHLIVWQVMYGNE
B3: BLOC1S2 (protein, UniProt Q6QNY1 1-142)
chain: MAAAAEGVLATRSDEPARDDAAVETAEEAKEPAEADITELCRDMFSKMATYLTGELTATSEDYKLLENMNKLTSLKYLEMKDIAINISRNLKDLNQKYAGLQPYLDQINVIEEQVAALEQAAYKLDAYSKKLEAKYKKLEKR
B4: SNX25 (protein, UniProt Q9H3E2 1-840)
chain: MDKALKEVFDYSYRDYILSWYGNLSRDEGQLYHLLLEDFWEIARQLHHRLSHVDVVKVVCNDVVRTLLTHFCDLKAANARHEEQPRPFVLHACLRNSDDEVRFLQTCSRVLVFCLLPSKDVQSLSLRIMLAEILTTKVLKPVVELLSNPDYINQMLLAQLAYREQMNEHHKRAYTYAPSYEDFIKLINSNSDVEFLKQLRYQIVVEIIQATTISSFPQLKRHKGKETAAMKADLLRARNMKRYINQLTVAKKQCEKRIRILGGPAYDQQEDGALDEGEGPQSQKILQFEDILANTFYREHFGMYMERMDKRALISFWESVEHLKNANKNEIPQLVGEIYQNFFVESKEISVEKSLYKEIQQCLVGNKGIEVFYKIQEDVYETLKDRYYPSFIVSDLYEKLLIKEEEKHASQMISNKDEMGPRDEAGEEAVDDGTNQINEQASFAVNKLRELNEKLEYKRQALNSIQNAPKPDKKIVSKLKDEIILIEKERTDLQLHMARTDWWCENLGMWKASITSGEVTEENGEQLPCYFVMVSLQEVGGVETKNWTVPRRLSEFQNLHRKLSECVPSLKKVQLPSLSKLPFKSIDQKFMEKSKNQLNKFLQNLLSDERLCQSEALYAFLSPSPDYLKVIDVQGKKNSFSLSSFLERLPRDFFSHQEEETEEDSDLSDYGDDVDGRKDALAEPCFMLIGEIFELRGMFKWVRRTLIALVQVTFGRTINKQIRDTVSWIFSEQMLVYYINIFRDAFWPNGKLAPPTTIRSKEQSQETKQRAQQKLLENIPDMLQSLVGQQNARHGIIKIFNALQETRANKHLLYALMELLLIELCPELRVHLDQLKAGQV
B5: ZFYVE27 (protein, UniProt Q5T4F4 1-411)
chain: MQTSEREGSGPELSPSVMPEAPLESPPFPTKSPAFDLFNLVLSYKRLEIYLEPLKDAGDGVRYLLRWQMPLCSLLTCLGLNVLFLTLNEGAWYSVGALMISVPALLGYLQEVCRARLPDSELMRRKYHSVRQEDLQRGRLSRPEAVAEVKSFLIQLEAFLSRLCCTCEAAYRVLHWENPVVSSQFYGALLGTVCMLYLLPLCWVLTLLNSTLFLGNVEFFRVVSEYRASLQQRMNPKQEEHAFESPPPPDVGGKDGLMDSTPALTPTEDLTPGSVEEAEEAEPDEEFKDAIEETHLVVLEDDEGAPCPAEDELALQDNGFLSKNEVLRSKVSRLTERLRKRYPTNNFGNCTGCSATFSVLKKRRSCSNCGNSFCSRCCSFKVPKSSMGATAPEAQRETVFVCASCNQTLSK
B6: SMAC (protein, UniProt Q9NR28 22-239)
chain: LCVPVVANFKKRCFSELIRPWHKTVTIGFGVTLCAVPIAQKSEPHSLSSEALMRRAVSLVTDSTSTFLSQTTYALIEAITEYTKAVYTLTSLYRQYTSLLGKMNSEEEDEVWQVIIGARAEMTSKHQEYLKLETTWMTAVGLSEMAAEAAYQTGADQASITARNHIQLVKLQVEEVHQLSRKAETKLAEAQIEELRQKTQEEGEERAESEQEAYLRED
B7: PDZD8 (protein, UniProt Q8NEN9 1-1154)
chain: MGLLLMILASAVLGSFLTLLAQFFLLYRRQPEPPADEAARAGEGFRYIKPVPGLLLREYLYGGGRDEEPSGAAPEGGATPTAAPETPAPPTRETCYFLNATILFLFRELRDTALTRRWVTKKIKVEFEELLQTKTAGRLLEGLSLRDVFLGETVPFIKTIRLVRPVVPSATGEPDGPEGEALPAACPEELAFEAEVEYNGGFHLAIDVDLVFGKSAYLFVKLSRVVGRLRLVFTRVPFTHWFFSFVEDPLIDFEVRSQFEGRPMPQLTSIIVNQLKKIIKRKHTLPNYKIRFKPFFPYQTLQGFEEDEEHIHIQQWALTEGRLKVTLLECSRLLIFGSYDREANVHCTLELSSSVWEEKQRSSIKTVELIKGNLQSVGLTLRLVQSTDGYAGHVIIETVAPNSPAAIADLQRGDRLIAIGGVKITSTLQVLKLIKQAGDRVLVYYERPVGQSNQGAVLQDNFGQLEENFLSSSCQSGYEEEAAGLTVDTESRELDSEFEDLASDVRAQNEFKDEAQSLSHSPKRVPTTLSIKPLGAISPVLNRKLAVGSHPLPPKIQSKDGNKPPPLKTSEITDPAQVSKPTQGSAFKPPVPPRPQAKVPLPSADAPNQAEPDVLVEKPEKVVPPPLVDKSAEKQAKNVDAIDDAAAPKQFLAKQEVAKDVTSETSCPTKDSSDDRQTWESSEILYRNKLGKWTRTRASCLFDIEACHRYLNIALWCRDPFKLGGLICLGHVSLKLEDVALGCLATSNTEYLSKLRLEAPSPKAIVTRTALRNLSMQKGFNDKFCYGDITIHFKYLKEGESDHHVVTNVEKEKEPHLVEEVSVLPKEEQFVGQMGLTENKHSFQDTQFQNPTWCDYCKKKVWTKAASQCMFCAYVCHKKCQEKCLAETSVCGATDRRIDRTLKNLRLEGQETLLGLPPRVDAEASKSVNKTTGLTRHIINTSSRLLNLRQVSKTRLSEPGTDLVEPSPKHTPNTSDNEGSDTEVCGPNSPSKRGNSTGIKLVRKEGGLDDSVFIAVKEIGRDLYRGLPTEERIQKLEFMLDKLQNEIDQELEHNNSLVREEKETTDTRKKSLLSAALAKSGERLQALTLLMIHYRAGIEDIETLESLSLDQHSKKISKYTDDTEEDLDNEISQLIDSQPFSSISDDLFGPSESV

Molecular target: Halo-TMEM55B (UniProt Q86T03)
Test: affinity purification with mass spectrometry; Halo-TMEM55B WT or R151E on HaloLink resin from transfected cells with Rab8A Q67L and LRRK2 Y1699C (or Y1699C D2017A); DIA-MS

binding | Binder
binds | B1
binds | B2
binds | B3
binds | B4
binds | B5
binds | B6
binds | B7

Molecular target: Halo-TMEM55B R151E (UniProt Q86T03)
Test: as above

binding | Binder
no binding | B1
no binding | B3
no binding | B4
no binding | B5
no binding | B6
no binding | B7
